{"source": "PubChem BioAssay AID504786 – Drosophila RNAi Screening Center, 2011", "screen": "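Fly genes required for HIF-dependent transcription when hypoxia is mimicked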 (primary screen)", "cell system": "Drosophila S2 cells with a stable HIF luciferase reporter", "knock-down reagent": "long dsRNA against Drosophila genes, about 0.2 µg dsRNA per well of a 384-well plate", "duration": "three days of knock-down, then 20 h of DFO before reading", "challenge": "desferrioxamine (DFO) at 100 µM, an iron chelator that mimics hypoxia, for 20 h", "read-out": "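Firefly luciferase driven by the mouse ldh-a hypoxia-response element, measured after 20 h of 100 µM DFO; z-scores per plate, higher means more signal lost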", "direction": "z-score: higher = stronger loss of HIF reporter signal", "note": "The screen tested about 21,000 reagents; shown is a random part of those with a known target gene and a result. 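Primary screen; positive scores mean lost reporter signal, so the sign may be inverted from the usual convention.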 A plus sign joins genes that one reagent is predicted to hit. Further read-outs or replicates are left out here. No sequences are given here."}
{"target": "CG14627", "dsRNA": "DRSC18630", "z-score, replicate 1": 0.6}
{"target": "Galt (Galactose-1-phosphate uridylyltransferase)", "dsRNA": "DRSC03161", "z-score, replicate 1": -0.2}
{"target": "CG18622", "dsRNA": "DRSC15360", "z-score, replicate 1": -0.5}
{"target": "Git (G protein-coupled receptor kinase interacting ArfGAP)", "dsRNA": "DRSC06620", "z-score, replicate 1": -0.1}
{"target": "Ilp6 (Insulin-like peptide 6)", "dsRNA": "DRSC17906", "z-score, replicate 1": -0.3}
{"target": "Eaat2 (Excitatory amino acid transporter 2)", "dsRNA": "DRSC00032", "z-score, replicate 1": 0}
{"target": "Eaat2 (Excitatory amino acid transporter 2)", "dsRNA": "DRSC00749", "z-score, replicate 1": -0.3}
{"target": "CG32428", "dsRNA": "DRSC11697", "z-score, replicate 1": 2}
{"target": "CG32428", "dsRNA": "DRSC11768", "z-score, replicate 1": -0.1}
{"target": "CG31391", "dsRNA": "DRSC16047", "z-score, replicate 1": -0.1}
{"target": "Jasper (JIL-1 anchoring and stabilizing protein)", "dsRNA": "DRSC16352", "z-score, replicate 1": -0.3}
{"target": "mask (multiple ankyrin repeats single KH domain)", "dsRNA": "DRSC15370", "z-score, replicate 1": -0.2}
{"target": "mask (multiple ankyrin repeats single KH domain)", "dsRNA": "DRSC16005", "z-score, replicate 1": -0.1}
{"target": "mask (multiple ankyrin repeats single KH domain)", "dsRNA": "DRSC16018", "z-score, replicate 1": 0.1}
{"target": "nur (nemuri)", "dsRNA": "DRSC01342", "z-score, replicate 1": 0.5}
{"target": "Pde11 (Phosphodiesterase 11)", "dsRNA": "DRSC02028", "z-score, replicate 1": -0.1}
{"target": "Pde11 (Phosphodiesterase 11)", "dsRNA": "DRSC02460", "z-score, replicate 1": 0.1}
{"target": "bdwf (bedwarfed)", "dsRNA": "DRSC15532", "z-score, replicate 1": -0.2}
{"target": "CG14421", "dsRNA": "DRSC17918", "z-score, replicate 1": -0.2}
{"target": "hll (heimdall)", "dsRNA": "DRSC01944", "z-score, replicate 1": 0}
{"target": "CG5002", "dsRNA": "DRSC06911", "z-score, replicate 1": -0.2}
{"target": "Fkbp14 (FK506-binding protein 14)", "dsRNA": "DRSC04615", "z-score, replicate 1": -0.3}
{"target": "Cyp309a1 (Cytochrome P450 309a1)", "dsRNA": "DRSC00747", "z-score, replicate 1": -0.3}
{"target": "Helz (Helicase with zinc finger)", "dsRNA": "DRSC11072", "z-score, replicate 1": -0.4}
{"target": "CG7950 + Rpp14a", "dsRNA": "DRSC16353", "z-score, replicate 1": -0.3}
{"target": "CG32668", "dsRNA": "DRSC18879", "z-score, replicate 1": -0.2}
{"target": "Rbcn-3B (Rabconnectin-3B)", "dsRNA": "DRSC18574", "z-score, replicate 1": 0.1}
{"target": "CG42570", "dsRNA": "DRSC09391", "z-score, replicate 1": 0.6}
{"target": "Yp1 (Yolk protein 1)", "dsRNA": "DRSC18731", "z-score, replicate 1": -0.2}
{"target": "CG15185", "dsRNA": "DRSC12565", "z-score, replicate 1": -0.3}
{"target": "igl (igloo)", "dsRNA": "DRSC07631", "z-score, replicate 1": -0.1}
{"target": "Kdm3 (Lysine demethylase 3)", "dsRNA": "DRSC16393", "z-score, replicate 1": -0.3}
{"target": "Hacd2 (3-hydroxyacyl-CoA dehydratase 2)", "dsRNA": "DRSC03181", "z-score, replicate 1": -0.3}
{"target": "CG34175", "dsRNA": "DRSC00424", "z-score, replicate 1": 0.1}
{"target": "Pburs (Partner of Bursicon)", "dsRNA": "DRSC02483", "z-score, replicate 1": -0.2}
{"target": "CG34447", "dsRNA": "DRSC00741", "z-score, replicate 1": -0.1}
{"target": "nht (no hitter)", "dsRNA": "DRSC01976", "z-score, replicate 1": 9.3}
{"target": "tws (twins)", "dsRNA": "DRSC12767", "z-score, replicate 1": 0.7}
{"target": "tws (twins)", "dsRNA": "DRSC17092", "z-score, replicate 1": 0.3}
{"target": "fwe (flower)", "dsRNA": "DRSC09398", "z-score, replicate 1": -0.3}
{"target": "fwe (flower)", "dsRNA": "DRSC10594", "z-score, replicate 1": -0.4}

Copied from the entries so far for reference:
{"target": "Pde11 (Phosphodiesterase 11)", "dsRNA": "DRSC02460", "z-score, replicate 1": 0.1}
{"target": "bdwf (bedwarfed)", "dsRNA": "DRSC15532", "z-score, replicate 1": -0.2}
{"target": "CG14421", "dsRNA": "DRSC17918", "z-score, replicate 1": -0.2}
{"target": "hll (heimdall)", "dsRNA": "DRSC01944", "z-score, replicate 1": 0}
{"target": "CG5002", "dsRNA": "DRSC06911", "z-score, replicate 1": -0.2}
{"target": "Fkbp14 (FK506-binding protein 14)", "dsRNA": "DRSC04615", "z-score, replicate 1": -0.3}
